Measured values: the supplement of paper PMC3334620
In all, about 33,000 sequences were measured (“E-score (-0.5 to 0.5)”: median about -0.0014, highest 2% from about 0.25 on). The list shows a part of the results.

target: T1, Cad1 (UniProt P24813); experiment: PBM E-score (8-mer binding enrichment) (E-score (-0.5 to 0.5)); higher = stronger / more preferred TF binding; conditions: protein concentration: 100 nM; construct: GST-full length
T1 sequence: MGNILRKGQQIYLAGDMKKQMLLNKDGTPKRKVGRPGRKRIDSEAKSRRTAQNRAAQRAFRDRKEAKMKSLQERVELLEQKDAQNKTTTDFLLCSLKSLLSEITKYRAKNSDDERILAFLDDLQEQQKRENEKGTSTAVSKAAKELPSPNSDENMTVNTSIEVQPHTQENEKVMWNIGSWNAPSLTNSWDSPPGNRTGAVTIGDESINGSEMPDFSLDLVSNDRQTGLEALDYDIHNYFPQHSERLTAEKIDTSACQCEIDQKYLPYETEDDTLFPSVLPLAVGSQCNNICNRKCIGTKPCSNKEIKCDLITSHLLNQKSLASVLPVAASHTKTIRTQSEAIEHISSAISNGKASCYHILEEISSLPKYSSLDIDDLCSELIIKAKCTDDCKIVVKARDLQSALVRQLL
How it was run: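 GST-tagged yeast TFs (full-length or DNA-binding domain) were made by PURExpress in vitro transcription/translation and applied at about 100-200 nM to universal all-10-mer Agilent arrays. The arrays were made double-stranded by primer extension, on fresh or once-stripped slides. Bound protein was detected with fluorescent anti-GST, and scans were normalised with masliner. Each ungapped eight-base word, pooled with its reverse complement, received an E-score (modified Wilcoxon-Mann-Whitney statistic) from the Universal PBM Analysis Suite.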

Compared with AGTTTAAA, GACCCCAA is lower in “PBM E-score” value: 0.106 for the first, -0.0199 for the second.

First: AGCCAGGG
Second: ACTGGATG
The “PBM E-score” value of the first is lower: -0.207 for the first, -0.0232 for the second.

Compared with AATGCAGT, CCATGTGC is lower in “PBM E-score” value: 0.0913 for the first, 0.05 for the second.

Going from CCACACCG to CCTGCGAC, the “PBM E-score” value falls from 0.0132 to -0.118.

Compared with CAGCAGCG, AGCCTCTC is lower in “PBM E-score” value: 0.11 for the first, -0.224 for the second.

Compared with CAGAAGTC, TATAGCAA is higher in “PBM E-score” value: -0.13 for the first, 0.00281 for the second.

First: GACTGTCA
Second: CAAGGGAA
The “PBM E-score” value of the first is lower: -0.046 for the first, 0.034 for the second.

First: CTTTAATC
Second: CATACGTC
The “PBM E-score” value of the first is higher: -0.00133 for the first, -0.175 for the second.

Going from ACCGCGCC to AGTGAACC, the “PBM E-score” value rises from 0.0081 to 0.101.

First: CACGAAAG
Second: GTCTTAAA
The “PBM E-score” value of the first is higher: 0.0698 for the first, -0.0335 for the second.

First: CAGCCAGC
Second: ATAAGACC
The “PBM E-score” value of the first is higher: -0.108 for the first, -0.18 for the second.

Compared with GGCGTCCC, ATAATCTA is higher in “PBM E-score” value: -0.213 for the first, 0.185 for the second.

First: CGCCCTAA
Second: CTGTCCCC
The “PBM E-score” value of the first is higher: -0.114 for the first, -0.119 for the second.

Compared with GACACCAA, CGCCGGAA is lower in “PBM E-score” value: 0.0633 for the first, 0.0602 for the second.

Going from AACCTTGA to ACCGGCCT, the “PBM E-score” value falls from 0.0727 to -0.0659.

Compared with CTACTCGC, TGCTGCAA is higher in “PBM E-score” value: 0.0123 for the first, 0.153 for the second.

Compared with CCGACCAG, ATAGGTGA is lower in “PBM E-score” value: -0.0271 for the first, -0.0537 for the second.

Going from GATTATAC to AAGCCAGG, the “PBM E-score” value falls from 0.0962 to -0.155.

First: ATCCCCGC
Second: CATGACTC
The “PBM E-score” value of the first is higher: -0.00423 for the first, -0.146 for the second.

First: CTGGTGCA
Second: CCGGAACC
The “PBM E-score” value of the first is lower: -0.264 for the first, 0.0783 for the second.

First: CAGAGCAA
Second: ACCGGAAA
The “PBM E-score” value of the first is lower: -0.0906 for the first, 0.135 for the second.

Compared with GGATTTAA, CTGTGATC is lower in “PBM E-score” value: 0.0137 for the first, -0.0125 for the second.

Going from TCCCCCAA to TGGCGGAA, the “PBM E-score” value rises from -0.221 to -0.14.

Compared with GCCCATAC, AAATCTAT is higher in “PBM E-score” value: -0.1 for the first, 0.0783 for the second.

Compared with CAGCCTGC, CTAAGCGC is higher in “PBM E-score” value: -0.208 for the first, 0.166 for the second.

First: CCGTTCCG
Second: CGATGTAC
The “PBM E-score” value of the first is higher: 0.0271 for the first, 0.0236 for the second.

Compared with ACAAGCAA, AAGGACGG is lower in “PBM E-score” value: 0.0592 for the first, -0.226 for the second.

First: CTCGGACC
Second: GAATAATC
The “PBM E-score” value of the first is lower: 0.106 for the first, 0.201 for the second.

Going from ACCCCAGA to AGCTGCCG, the “PBM E-score” value rises from -0.287 to 0.0343.

Compared with GTCTACAA, AGACCCAG is lower in “PBM E-score” value: -0.119 for the first, -0.206 for the second.

Going from ACCCGCCA to GTCTGAAA, the “PBM E-score” value falls from 0.133 to 0.0244.

Going from AACCGTAA to CAGATTAA, the “PBM E-score” value rises from -0.0296 to 0.162.

Compared with AACGAGAG, TAGAGCTA is lower in “PBM E-score” value: -0.0581 for the first, -0.158 for the second.

First: GGCGCCTA
Second: AATACGGA
The “PBM E-score” value of the first is lower: -0.0479 for the first, 0.077 for the second.

Going from CTTTGTTC to CCCACGGA, the “PBM E-score” value falls from 0.0827 to -0.117.

First: AGATTAAT
Second: AAGGGTGT
The “PBM E-score” value of the first is higher: 0.16 for the first, 0.031 for the second.

Compared with GGTCTCAC, ATGGTACG is higher in “PBM E-score” value: -0.0634 for the first, 0.0436 for the second.

First: AATTCGTG
Second: ATGCACAC
The “PBM E-score” value of the first is lower: -0.14 for the first, 0.125 for the second.

Going from CGAACTTC to CATGATAG, the “PBM E-score” value falls from 0.129 to 0.0205.

Compared with CAAAGCGA, CCTTGCTC is lower in “PBM E-score” value: 0.0638 for the first, -0.0109 for the second.

Compared with GGTCTGCA, AAAGGGAC is lower in “PBM E-score” value: 0.0477 for the first, -0.139 for the second.

First: ATTTCGGG
Second: ACGCTCAT
The “PBM E-score” value of the first is lower: -0.034 for the first, 0.109 for the second.

First: CGCTACGC
Second: ACCGGGTC
The “PBM E-score” value of the first is higher: -0.105 for the first, -0.125 for the second.

Going from CTACGATC to ACATTTAC, the “PBM E-score” value falls from 0.0442 to -0.0798.

First: CGGCGTAG
Second: ACAATTGC
The “PBM E-score” value of the first is lower: -0.0527 for the first, 0.158 for the second.

First: CTTTATAA
Second: ACTCGACA
The “PBM E-score” value of the first is lower: 0.101 for the first, 0.214 for the second.

Going from ACTGGTAT to CTCTGTCA, the “PBM E-score” value rises from -0.044 to 0.0441.
